These are yes or no findings as the source states them, for the method shown. Some results given as binding are weak or reduced against the parent protein; the word gives no strength.
biological target: ErbB3 (UniProt P21860); assay: MRD screen, Example 48

The chains behind the UniProt entries cited, without tags or fusion partners. Residues count along the entry.
UniProt P21860, residues 20-643: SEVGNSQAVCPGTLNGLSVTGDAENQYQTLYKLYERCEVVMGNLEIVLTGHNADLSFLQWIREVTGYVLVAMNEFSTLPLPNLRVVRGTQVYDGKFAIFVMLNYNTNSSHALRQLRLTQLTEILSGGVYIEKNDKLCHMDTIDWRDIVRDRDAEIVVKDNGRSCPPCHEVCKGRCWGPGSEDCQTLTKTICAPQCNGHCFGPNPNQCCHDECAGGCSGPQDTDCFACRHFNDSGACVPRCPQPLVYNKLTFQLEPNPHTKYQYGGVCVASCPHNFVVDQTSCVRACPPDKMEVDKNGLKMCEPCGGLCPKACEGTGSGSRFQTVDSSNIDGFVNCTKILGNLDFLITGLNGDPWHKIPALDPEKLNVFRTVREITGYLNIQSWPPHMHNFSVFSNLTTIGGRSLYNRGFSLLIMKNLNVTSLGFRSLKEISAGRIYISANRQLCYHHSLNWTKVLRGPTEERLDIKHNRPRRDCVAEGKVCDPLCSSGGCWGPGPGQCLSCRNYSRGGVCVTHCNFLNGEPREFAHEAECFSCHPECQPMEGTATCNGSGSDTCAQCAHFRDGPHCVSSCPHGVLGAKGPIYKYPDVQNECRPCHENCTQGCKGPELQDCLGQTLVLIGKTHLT

binding, binds:
DSEPYCPFLNPTWKDQCLARF [EGC518]
VNDPYCPFLNPTWKAECIART [EGC476]
LNEPYCPFMNPNWKAECLARM [EGC468]
GEQLCSKIPSSDALWWVRLL [EGC287]
TSEPYCPFLNPIWKDQCIART [EGC522]
KFFMCVDYPSLKWDVCMETL [EGC277]
SYEPYCPFLNPTWKEQCIIRS [EGC467]
IGEPYCPFANPTWKQECIART [EGC508]
KFMMCQVYPSQKWHVCVETF [EGC289]
NSEPYCPFINPIWKAECIART [EGC470]
SKGPYCPFLNPIWKDECIARI [EGC469]
QSKPYCPFLNPTWKAQCIARS [EGC471]
TSEPYCPFLNPIWKAECISRT [EGC466]
TGSPYCPFLNPTWKAHCIARL [EGC494]
LPPPCYWTTWGKECQMFD [EGC490]
KTEPYCPFLNPTWKAECIART [EGC491]
DALRCFEWVKRNCLLSS [EGC288]
MREPYCPFLNPTWKDQCIAIR [EGC512]
AVELCFHHTQEWTYCLWRF [EGC286]
SNLYLCQVYPSGKYHICIEAL [EGC453]
RSEPYCPFLNPIWKNECIARS [EGC523]
HLIMCQVYPSGKWHVCLATT [EGC285]
RFFMCVDYPSIKWDVCPETI [EGC278]
SSEPYCPFHNPTWKDQCLARS [EGC517]
SIEPYCPFLNPTWKAECLVRS [EGC488]
TSTPYCPFLNPIWKAECLSRI [EGC472]
LREPYCPFLNPIWNVECLARS [EGC516]
KLFLCQVYPSERWHVCVESL [EGC284]
TSDPYCPFVNPIWYNECIART [EGC492]
WSEPYCPFLNPAWKDQCLART [EGC511]
YREPYCPFLNPIWKEQCIARS [EGC514]
ISEPYCPFMNPTWKEQCLART [EGC474]
VEHLCSKIPFWHVQCLARI [EGC291]
FSEPYCPFINPTWKAQCLARI [EGC524]
ASEPYCPFLNPTWKDQCMARL [EGC500]
YSEPYCPFLNPTWKNECIARS [EGC465]
VEHLCSEIPFWNVQCLARF [EGC283]
NSEPYCPFLNPSWKASCIARM [EGC519]
PRWTCEWYQARQSCSLGQ [EGC280]
RYFYMCQVYPSERWQVCVGTS [EGC337]
SIDPYCPFLNPTWLKECIARS [EGC502]
VSEPYCPFLNPVWKDQCLSRI [EGC489]
ISAPYCPFLNPIWKDECIART [EGC515]
RSEPYCPFLNPTWKAQCIYRT [EGC501]
KFHMCQVYPSRNWHVWVETL [EGC281]

From patent US20160046678A1 (ZYNGENIA, published 2016)
